Reference: publication PMC9590148
No constants are given. Whether binding was seen depends on the method and setting. Binding seen in cells or lysates may run through a third protein. Some binding calls cover weakened binding; strength is not graded here.

Amino acid sequences for entries named in this document (tags omitted).
UniProt P46937: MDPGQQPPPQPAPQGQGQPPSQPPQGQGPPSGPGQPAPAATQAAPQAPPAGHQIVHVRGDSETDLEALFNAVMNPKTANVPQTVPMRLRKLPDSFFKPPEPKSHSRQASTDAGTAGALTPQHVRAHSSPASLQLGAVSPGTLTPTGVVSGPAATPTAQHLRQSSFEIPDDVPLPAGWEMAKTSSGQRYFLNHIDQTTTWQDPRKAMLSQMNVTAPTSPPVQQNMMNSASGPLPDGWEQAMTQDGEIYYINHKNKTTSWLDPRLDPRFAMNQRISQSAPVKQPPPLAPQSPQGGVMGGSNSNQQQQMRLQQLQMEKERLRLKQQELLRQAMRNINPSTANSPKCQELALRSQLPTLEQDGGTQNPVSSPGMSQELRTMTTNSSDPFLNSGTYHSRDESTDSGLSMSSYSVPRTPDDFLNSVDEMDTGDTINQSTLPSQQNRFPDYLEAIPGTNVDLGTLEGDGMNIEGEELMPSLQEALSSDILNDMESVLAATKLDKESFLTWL
UniProt Q9BYM8: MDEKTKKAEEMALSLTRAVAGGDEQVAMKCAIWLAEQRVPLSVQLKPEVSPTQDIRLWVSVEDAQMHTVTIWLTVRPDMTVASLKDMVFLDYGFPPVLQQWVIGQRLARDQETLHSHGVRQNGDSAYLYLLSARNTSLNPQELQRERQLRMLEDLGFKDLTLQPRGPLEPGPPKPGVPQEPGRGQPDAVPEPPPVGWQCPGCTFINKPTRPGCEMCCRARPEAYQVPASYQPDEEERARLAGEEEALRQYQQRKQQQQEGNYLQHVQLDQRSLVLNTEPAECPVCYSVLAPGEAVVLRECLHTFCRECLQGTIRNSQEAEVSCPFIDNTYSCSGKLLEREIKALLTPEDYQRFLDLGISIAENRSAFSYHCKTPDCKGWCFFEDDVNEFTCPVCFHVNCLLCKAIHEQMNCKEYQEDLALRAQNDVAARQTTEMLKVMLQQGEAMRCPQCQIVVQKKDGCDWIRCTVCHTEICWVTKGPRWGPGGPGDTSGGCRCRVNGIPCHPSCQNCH

Tests used:
Myc-YAP full-length = Myc-YAP full-length (UniProt P46937); experiment: co-IP; HEK293 cells co-transfected with Myc-YAP and Flag-RBCK1 (full-length or deletion mutants), NP-40 lysis buffer after 24 h; lysates precleared with IgG, IP with anti-Myc antibody, western blot with anti-Flag antibody; rabbit IgG as negative control
[1] = biological target: YAP (Yes-associated protein), endogenous (human (endogenous in MDA-MB-231)) (UniProt P46937); experiment: co-IP; endogenous proteins in total lysate of MDA-MB-231 cells (RIPA lysis buffer), precleared with rabbit IgG; IP with anti-RBCK1 or anti-YAP antibody, bound protein detected with anti-YAP or anti-RBCK1 antibody

Substance | binding (Myc-YAP full-length) | binding [1]
Flag-RBCK1 full-length (from UniProt Q9BYM8 1-510) | binds | 
RBCK1 (RANBP2-type and C3HC4-type zinc finger-containing 1), endogenous (from UniProt Q9BYM8 1-510) |  | binds
